{
  "source": "paper PMC6177253",
  "binders": {"B1": {"name": "Alpha-2-macroglobulin (protein, UniProt P01023 24-1474)", "chain": "SVSGKPQYMVLVPSLLHTETTEKGCVLLSYLNETVTVSASLESVRGNRSLFTDLEAENDVLHCVAFAVPKSSSNEEVMFLTVQVKGPTQEFKKRTTVMVKNEDSLVFVQTDKSIYKPGQTVKFRVVSMDENFHPLNELIPLVYIQDPKGNRIAQWQSFQLEGGLKQFSFPLSSEPFQGSYKVVVQKKSGGRTEHPFTVEEFVLPKFEVQVTVPKIITILEEEMNVSVCGLYTYGKPVPGHVTVSICRKYSDASDCHGEDSQAFCEKFSGQLNSHGCFYQQVKTKVFQLKRKEYEMKLHTEAQIQEEGTVVELTGRQSSEITRTITKLSFVKVDSHFRQGIPFFGQVRLVDGKGVPIPNKVIFIRGNEANYYSNATTDEHGLVQFSINTTNVMGTSLTVRVNYKDRSPCYGYQWVSEEHEEAHHTAYLVFSPSKSFVHLEPMSHELPCGHTQTVQAHYILNGGTLLGLKKLSFYYLIMAKGGIVRTGTHGLLVKQEDMKGHFSISIPVKSDIAPVARLLIYAVLPTGDVIGDSAKYDVENCLANKVDLSFSPSQSLPASHAHLRVTAAPQSVCALRAVDQSVLLMKPDAELSASSVYNLLPEKDLTGFPGPLNDQDNEDCINRHNVYINGITYTPVSSTNEKDMYSFLEDMGLKAFTNSKIRKPKMCPQLQQYEMHGPEGLRVGFYESDVMGRGHARLVHVEEPHTETVRKYFPETWIWDLVVVNSAGVAEVGVTVPDTITEWKAGAFCLSEDAGLGISSTASLRAFQPFFVELTMPYSVIRGEAFTLKATVLNYLPKCIRVSVQLEASPAFLAVPVEKEQAPHCICANGRQTVSWAVTPKSLGNVNFTVSAEALESQELCGTEVPSVPEHGRKDTVIKPLLVEPEGLEKETTFNSLLCPSGGEVSEELSLKLPPNVVEESARASVSVLGDILGSAMQNTQNLLQMPYGCGEQNMVLFAPNIYVLDYLNETQQLTPEIKSKAIGYLNTGYQRQLNYKHYDGSYSTFGERYGRNQGNTWLTAFVLKTFAQARAYIFIDEAHITQALIWLSQRQKDNGCFRSSGSLLNNAIKGGVEDEVTLSAYITIALLEIPLTVTHPVVRNALFCLESAWKTAQEGDHGSHVYTKALLAYAFALAGNQDKRKEVLKSLNEEAVKKDNSVHWERPQKPKAPVGHFYEPQAPSAEVEMTSYVLLAYLTAQPAPTSEDLTSATNIVKWITKQQNAQGGFSSTQDTVVALHALSKYGAATFTRTGKAAQVTIQSSGTFSSKFQVDNNNRLLLQQVSLPELPGEYSMKVTGEGCVYLQTSLKYNILPEKEEFPFALGVQTLPQTCDEPKAHTSFQISLSVSYTGSRSASNMAIVDVKMVSGFIPLKPTVKMLERSNHVSRTEVSSNHVLIYLDKVSNQTLSLFFTVLQDVPVRDLKPAIVKVYDYYETDEFAIAEYNAPCSKDLGNA"}, "B2": {"name": "Heterogeneous nuclear ribonucleoprotein L (protein, UniProt P14866 1-589)", "chain": "MSRRLLPRAEKRRRRLEQRQQPDEQRRRSGAMVKMAAAGGGGGGGRYYGGGSEGGRAPKRLKTDNAGDQHGGGGGGGGGAGAAGGGGGGENYDDPHKTPASPVVHIRGLIDGVVEADLVEALQEFGPISYVVVMPKKRQALVEFEDVLGACNAVNYAADNQIYIAGHPAFVNYSTSQKISRPGDSDDSRSVNSVLLFTILNPIYSITTDVLYTICNPCGPVQRIVIFRKNGVQAMVEFDSVQSAQRAKASLNGADIYSGCCTLKIEYAKPTRLNVFKNDQDTWDYTNPNLSGQGDPGSNPNKRQRQPPLLGDHPAEYGGPHGGYHSHYHDEGYGPPPPHYEGRRMGPPVGGHRRGPSRYGPQYGHPPPPPPPPEYGPHADSPVLMVYGLDQSKMNCDRVFNVFCLYGNVEKVKFMKSKPGAAMVEMADGYAVDRAITHLNNNFMFGQKLNVCVSKQPAIMPGQSYGLEDGSCSYKDFSESRNNRFSTPEQAAKNRIQHPSNVLHFFNAPLEVTEENFFEICDELGVKRPSSVKVFSGKSERSSSGLLEWESKSDALETLGFLNHYQMKNPNGPYPYTLKLCFSTAQHAS"}},
  "molecular_target": "recombinant MAVA5_06970 protein (without signal sequence, 6xHN-tagged) (Mycobacterium avium subsp. hominissuis strain A5)",
  "test": "affinity purification with mass spectrometry; 6xHN-MAVA5_06970 immobilised on a His60 nickel column; total protein extract of THP-1 cells (in PBS with protease inhibitors) loaded overnight at 4°C with rotation; washed, eluted, SDS-PAGE, Coomassie bands excised, ESI-MS/MS; control: E. coli with the empty pET6xHN-N vector; only the target purified",
  "note": "No constants are given. Whether binding was seen depends on the method and setting. Binding seen in cells or lysates may run through a third protein. These calls come from enrichment with a bait or labelling near it, and not all partners need be listed.",
  "data": [
    {"binder": "B1", "values": [
      {"measurement": "binding", "result": "binds"}
    ]},
    {"binder": "B2", "values": [
      {"measurement": "binding", "result": "binds"}
    ]}
  ]
}
